Results taken from PubChem BioAssay AID2685 (National Center for Advancing Translational Sciences (NCATS), 2010).
Some of the results follow. Shown are side measurements of this screen, not its main read-out; they come without a call. The list favours compounds with an active or inconclusive main result. The note in brackets gives the kind of curve behind each potency; many fits are weak.

Assay: qHTS Assay for Lipid Storage Modulators in Drosophila S3 Cells;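 on cell number change: cells counted by Cell Tracker Red CMTPX staining in the red channel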
Conditions: BODIPY lipid droplet fluorescence, 18-24 h; for cell number change: measured here: cell count max response, cells fed with added oleic acid
Procedure, shortened: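 Drosophila S3 cells loaded with oleic acid (400 uM, as added) and compounds at several concentrations; lipid droplets imaged by 488-nm laser-scanning cytometry, 500–530 nm intensity and object ratio to cell channel. Percent activity normalized to 20 uM Triacsin C.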

[1] = measured here: cell number channel AC50, cells fed with added oleic acid
[2] = measured here: lipid fluorescence (Fed channel) AC50, cells fed with added oleic acid

Compound | cell number change [%] | AC50 [1] | AC50 [2]
CCOc1ccccc1NC(=O)CNC(=O)c1nn(-c2ccc(OC)c(OC)c2)c(=O)c2ccccc12 | -38.9 | 9.2 µM [falling, partial curve, poor fit] | –
CC[N+](CC)(CCCCS(=O)(=O)[O-])CCNP1(=O)C=C(c2ccccc2)OC(c2ccccc2)=C1 | -0.566 | – | –
Cc1nc(SCC(=O)NCc2ccco2)nc(C)c1C | -10.9 | – | –
Cc1cc(C)n(CC(O)Cn2c3ccc(Br)cc3c3cc(Br)ccc32)c(=O)n1 (stereo not given) | -5.13 | – | 29.1 µM [rising, single point]
Cc1cc(C)c2nc(NCc3ccccc3O)sc2c1 | -53.2 | 20.6 µM [falling, single point] | 20.6 µM [falling, single point]
OCCCNC(=S)Nc1ccc2nc(-c3ccccn3)c(-c3ccccn3)nc2c1 | -0.575 | 1.46 µM [rising, partial curve, poor fit] | 6.51 µM [rising, single point]
O=C(CCN1C(=O)c2ccccc2C1=O)Nc1cccc(S(=O)(=O)NC2=NCCC2)c1 | 0.797 | – | –
Cc1cccc(NC(=S)NC(=O)c2ccco2)n1 | -36.1 | 4.11 µM [falling, full curve, poor fit] | –
C/C(=N\NC(=O)c1nnn(-c2nonc2N)c1-c1cccs1)c1ccc(C)cc1 | 40.6 | 8.2 µM [rising, partial curve] | 25.9 µM [rising, partial curve]
CN(NS(=O)(=O)c1ccc(Cl)cc1)c1cnn(C)c(=O)c1Cl | -46.1 | 16.4 µM [falling, single point] | 25.9 µM [falling, single point]
COc1ccc(OC)c(C(=O)COC(=O)c2cccnc2Cl)c1 | 7.94 | 0.731 µM [rising, single point] | –
Cc1nn2c(-c3ccccc3)nnc2c2ccccc12 | 0.405 | – | 0.461 µM [rising, full curve]
CC(C)c1ccc(S(=O)(=O)N2CCN(C(=O)[C@@H]3CCCN3C(=O)c3cccs3)CC2)cc1 | 14.1 | – | –
CCOc1cc(/C=N/NC(=O)CN2CCCCC2)ccc1OCc1cccc(Cl)c1 | -2.14 | – | 16.4 µM [rising, single point]
O=C(CSc1ccc([N+](=O)[O-])cn1)Nc1ccc(N2CCOCC2)c(Cl)c1 | 0.234 | – | 0.92 µM [falling, full curve, poor fit]
O=C(c1ccc2c(=O)n(CCc3ccccc3)c(=O)[nH]c2c1)N1CCN(c2ccc(F)cc2)CC1 | 9.01 | – | 29.1 µM [falling, single point]
COc1cc(C2/C(=C(\O)c3ccc4c(c3)CC(C)O4)C(=O)C(=O)N2CC2CCCO2)cc(OC)c1OC (stereo not given) | – | – | 1.3 µM [falling, full curve]
Clc1ccc2nc(N3CCNCC3)nc(-c3ccccc3)c2c1 | -32.9 | 23.1 µM [falling, single point] | 23.1 µM [falling, single point]
O=C(NCC(=O)N1CCCC1)c1ccc(Cl)cc1 | -22.7 | – | 29.1 µM [rising, single point]
COc1cc(-c2nc3c(c(C)nn3-c3ccccc3)c3cc(OC)c(OC)cc23)ccc1O | -3.29 | – | 20.6 µM [falling, partial curve]

Compound | cell number change [%] | AC50 [1] | AC50 [2]
CCOc1ccccc1NC(=O)Cn1cnc2c(cnn2-c2ccc(C)c(C)c2)c1=O | 16.4 | – | 0.206 µM [rising, full curve, poor fit]
CCOC(=O)C1=C(O)/C(=C/c2ccccn2)SC1=Nc1ccc(Cl)cc1 | -19.4 | – | 29.1 µM [falling, single point]
N#Cc1c(N)nc(N2CCCC2)c(C#N)c1-c1ccc(Cl)cc1 | -23.6 | – | 1.64 µM [rising, partial curve, poor fit]
O=C(CSc1oc(-c2cccs2)nc1S(=O)(=O)c1ccccc1)NC1CCCCC1 | 35.2 | 0.92 µM [rising, full curve, poor fit] | 0.231 µM [rising, full curve, poor fit]
CCCCNC(=S)N1CCN(C)CC1 | -35.8 | 32.6 µM [falling, single point] | 29.1 µM [falling, single point]
O=C(CNC(=O)c1ccccc1Br)N/N=C\c1cc([N+](=O)[O-])cc(Br)c1O | 48.7 | – | –
CCOC(=O)CSc1nc2sc3c(c2c(=O)[nH]1)CCCC3 | -21.1 | – | –
Cc1cc(N2CCN(Cc3ccccc3)CC2)n2nc(C)c(-c3ccccc3)c2n1 | 39.9 | 0.461 µM [rising, full curve, poor fit] | 0.651 µM [rising, full curve]
COCC(=O)Nc1ccc(Br)cc1 | -22.4 | 2.06 µM [falling, partial curve, poor fit] | 18.4 µM [falling, single point]
CCOC(=O)Cn1c(=NC(=O)c2nc3ccccc3s2)sc2cc(S(N)(=O)=O)ccc21 | -71.7 | 16.4 µM [falling, partial curve] | –
O=c1cnn(Cc2ccc(F)cc2)c2ccccc12 | -12.4 | – | 6.51 µM [rising, single point]
CCn1c(=O)[nH]c2cc(Cl)c(Cl)cc21 | 30.3 | 29.1 µM [rising, single point] | 29.1 µM [rising, single point]
COc1ccc(N=CC2=C(O)c3ccccc3C2=O)c(OC)c1 | -5.05 | – | –
O=C(O)C(=O)Cc1c[nH]c2ccccc12 | 0.551 | – | 13 µM [rising, partial curve]
O=P(OC1CCCCC1)(OC1CCCCC1)C(Nc1ccccc1)c1cccnc1 (stereo not given) | 18.5 | – | –
Cc1nnc(SCCn2c(N3CCC(Cc4ccccc4)CC3)nc3c2c(=O)[nH]c(=O)n3C)s1 | 7.78 | – | 0.411 µM [rising, full curve, poor fit]
Cc1ccc(S(=O)(=O)N2CCOCC2)cc1NC(=O)Cn1ccsc1=N | -24.4 | 3.26 µM [falling, single point] | 29.1 µM [falling, single point]
COc1ccc(N2C(=O)C3CCCN3C2c2ccc(Cl)cc2)cc1 (stereo not given) | 31.4 | 6.51 µM [rising, single point] | –
CC(=O)c1cnc(Nc2nc(C)c3ccccc3n2)nc1C | 55.4 | 10.3 µM [rising, partial curve] | 6.51 µM [rising, single point]
O=C(Nc1ccc(N2CCOCC2)cc1)c1cc2c(s1)CCCCC2 | 22.3 | – | 6.51 µM [rising, single point]

Compound | cell number change [%] | AC50 [1] | AC50 [2]
COc1ccc(CCNC(=O)C2=CC=CN3CCS(=O)(=O)N=C23)cc1 | -14.3 | – | –
CCOC(=O)c1cccc(NC(=O)CSc2nnnn2C)c1 | -27.7 | – | 0.0651 µM [falling, full curve, poor fit]
CC(C)CC1NC(=O)N(CC(=O)Nc2ccc3c(c2)OCCO3)C1=O (stereo not given) | 11.1 | – | 0.517 µM [rising, full curve, poor fit]
Fc1ccc(Nc2nc(NCc3ccco3)c3ccccc3n2)cc1 | -60.1 | 29.1 µM [falling, single point] | –
Cc1c(O)ccc(C(=O)COc2ccc(F)cc2)c1O | -41.8 | 10.3 µM [falling, partial curve] | 2.06 µM [falling, full curve]
O=c1[nH]cc(N2CCCCCC2)c(=O)[nH]1 | -30.9 | 29.1 µM [falling, single point] | 29.1 µM [falling, single point]
COc1ccccc1NC(=O)c1ccc(NC(=O)CSc2nc(N)cc(=O)[nH]2)cc1 | -8.43 | – | 1.16 µM [rising, partial curve, poor fit]
CCOC(=O)Nc1ccc(S(=O)(=O)NC2CCCCC2)cc1 | 12 | – | –
CCOc1[nH]n(-c2ccccc2)c(=O)c1C=Nc1ccc(C)cc1 | 65.6 | – | –
CC(Sc1nnc(-c2ccco2)n1C)C(=O)NC1CCCC1 (stereo not given) | -36.1 | 29.1 µM [falling, single point] | –
COc1ccccc1-c1coc2c(CN3CCN(C)CC3)c(O)ccc2c1=O | -0.0737 | – | 20.6 µM [falling, partial curve]
COc1ccccc1CNC(=O)C(=O)NCC1OCCCN1S(=O)(=O)c1ccc(F)cc1C (stereo not given) | 36.1 | 25.9 µM [rising, single point] | 18.4 µM [rising, single point]
CC(C)Sc1nnc(SCC(=O)N(C)C2CCS(=O)(=O)C2)s1 (stereo not given) | -7.89 | – | 6.51 µM [falling, single point]
COc1ccc(C2c3[nH]c4ccccc4c3CCN2C(=O)c2cn3ccccc3n2)c(F)c1 (stereo not given) | -29.4 | – | 14.6 µM [falling, partial curve]
COC(=O)c1sccc1NC(=O)c1cc2c(s1)CCCC2 | -23.6 | – | –
CCC(Sc1nc(N)c(NC(=O)c2ccc(OC)c(OC)c2)c(=O)[nH]1)C(=O)OC (stereo not given) | 15.8 | – | 1.03 µM [rising, single point]
CCOC(=O)N1CCN(c2c(F)cc3[nH]c(=S)[nH]c3c2Br)CC1 | -25.3 | – | –
CSc1ccc(/C=C/C(=O)c2ccc(O)cc2)cc1 | -15.3 | – | 29.1 µM [falling, single point]
CC(=O)Nc1ccc(NC(=O)COc2cc(C)cc3oc(=O)cc(C)c23)cc1 | -13 | – | –
CCCCNC(=O)CSc1nc(O)cc(=O)n1C1CCCC1 | -49.8 | – | 9.2 µM [falling, single point]

Single records (already shown). Order of values: cell number change [%]	AC50 [1]	AC50 [2]
Cc1nnc(SCCn2c(N3CCC(Cc4ccccc4)CC3)nc3c2c(=O)[nH]c(=O)n3C)s1 is entered as 7.78	–	0.411 µM [rising, full curve, poor fit]
CC(C)Sc1nnc(SCC(=O)N(C)C2CCS(=O)(=O)C2)s1 (stereo not given) is entered as -7.89	–	6.51 µM [falling, single point]
O=C(CNC(=O)c1ccccc1Br)N/N=C\c1cc([N+](=O)[O-])cc(Br)c1O is entered as 48.7	–	–
